Source: PubChem BioAssay AID2685 (National Center for Advancing Translational Sciences (NCATS), 2010)
The other results are listed elsewhere or left out. These are further read-outs of the screen, such as a control signal, another cell line or another target. No call is given for them. The list favours compounds with an active or inconclusive main result. Words in brackets tell the shape of the fitted curve; partial curves, single points and poor fits give uncertain potencies.

Assay: qHTS Assay for Lipid Storage Modulators in Drosophila S3 Cells;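 for cell number change: cells counted by Cell Tracker Red CMTPX staining in the red channel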
Details: BODIPY lipid droplet fluorescence, 18-24 h; for cell number change: measured here: cell count max response, cells fed with added oleic acid
Outline: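 Laser-scanning cytometry quantifies lipid droplet accumulation (500–530 nm total intensity; droplet/cell object ratio) in oleic acid-fed (400 uM added) Drosophila S3 cells treated with a concentration series. 20 uM Triacsin C defined 100% inhibition.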

[1] = measured here: lipid fluorescence (Fed channel) AC50, cells fed with added oleic acid
[2] = measured here: cell number channel AC50, cells fed with added oleic acid

| SMILES | AC50 [1] | cell number change [%] | AC50 [2] |
| --- | --- | --- | --- |
| COc1ccccc1NC(=O)N1CCCC1C(=O)NCc1ccc2c(c1)OCO2 (configuration not stated) | 7.31 µM [rising, partial curve, poor fit] | – | – |
| COc1ccccc1N(CC(=O)NCc1ccccc1C)S(=O)(=O)c1ccc(C)cc1 | – | -6.58 | – |
| Cc1ccc(CC(CC(=O)Nc2cccc(C(F)(F)F)c2)C(=O)O)cc1 (configuration not stated) | 29.1 µM [falling, single point] | -43.5 | 29.1 µM [falling, single point] |
| CCN1CCN(CC#CCOc2ccccc2OC)CC1 | 13 µM [rising, partial curve] | 13.1 | – |
| CN(CC1COCCO1)C(=O)c1cc(COc2c(F)cccc2F)on1 (configuration not stated) | 0.00517 µM [rising, full curve, poor fit] | 23.9 | – |
| Cc1cc(C)c(C)c(S(=O)(=O)N2CCCN(C)CC2)c1C | 0.206 µM [rising, single point] | 8.4 | – |
| COc1cccc(CNCCNC(=O)c2nonc2N)c1 | 16.4 µM [falling, single point] | -37.1 | 29.1 µM [falling, single point] |
| CCCCCCn1c(NCC)nc2c1c(=O)n(C)c(=O)n2C | 2.06 µM [falling, full curve] | -41.9 | 1.03 µM [falling, full curve] |
| O=CN1CCN(C(=O)c2ccc([N+](=O)[O-])cc2)CC1 | 6.51 µM [falling, single point] | 15.4 | – |
| Cc1ccc(S(=O)(=O)NCc2ccc(C(=O)NCc3cccnc3)cc2)cc1 | – | 18.4 | – |
| Cc1ccc(NC(=O)C2C(c3ccccc3)C2(Cl)Cl)c(C)c1 (configuration not stated) | 0.00461 µM [rising, full curve, poor fit] | 47.9 | 0.231 µM [rising, full curve] |
| Cc1c(NC(=O)c2ccc(C(=O)Nc3c(C)n(C)n(-c4ccccc4)c3=O)cc2)c(=O)n(-c2ccccc2)n1C | – | 16.1 | – |
| O=C(CCC1CCCCC1)NCCN1CCOCC1 | 29.1 µM [rising, single point] | 20.4 | – |
| Cc1cccc(NC(=S)N/N=C2\CC(C)(C)Oc3ccc(O)cc32)c1 | 29.1 µM [falling, single point] | -27.8 | – |
| CC1(C)CC(CC(=O)O)(c2ccc(F)cc2)CCO1 (configuration not stated) | – | 11.1 | – |
| N#CCCCC#Cc1ccc2c(c1)COc1c3ccccc3nn1-2 | 1.64 µM [falling, partial curve] | 9.64 | 0.461 µM [falling, single point] |
| CSc1ccccc1NC(=O)c1ccc(CN2CCOCC2)cc1 | – | 55.8 | 25.9 µM [rising, single point] |
| COc1ccc(CCNC(=O)C(=O)NCC2OCCN2S(=O)(=O)c2cc(F)ccc2F)cc1OC (configuration not stated) | – | 10.4 | – |
| CCC(C)NC(=O)C1CCC(CNS(=O)(=O)c2ccc3c(c2)N(C(C)=O)CCO3)CC1 (configuration not stated) | – | -3.54 | – |
| CCOc1ccc(N2CC(C(=O)NCc3ccco3)CC2=O)cc1 (configuration not stated) | 0.13 µM [rising, full curve, poor fit] | 12.9 | – |

Molecules listed so far that contain a carbonyl joined to an NH by a bond outside any ring:

| SMILES | AC50 [1] | cell number change [%] | AC50 [2] |
| --- | --- | --- | --- |
| COc1ccccc1NC(=O)N1CCCC1C(=O)NCc1ccc2c(c1)OCO2 (configuration not stated) | 7.31 µM [rising, partial curve, poor fit] | – | – |
| COc1ccccc1N(CC(=O)NCc1ccccc1C)S(=O)(=O)c1ccc(C)cc1 | – | -6.58 | – |
| Cc1ccc(CC(CC(=O)Nc2cccc(C(F)(F)F)c2)C(=O)O)cc1 (configuration not stated) | 29.1 µM [falling, single point] | -43.5 | 29.1 µM [falling, single point] |
| COc1cccc(CNCCNC(=O)c2nonc2N)c1 | 16.4 µM [falling, single point] | -37.1 | 29.1 µM [falling, single point] |
| Cc1ccc(S(=O)(=O)NCc2ccc(C(=O)NCc3cccnc3)cc2)cc1 | – | 18.4 | – |
| Cc1ccc(NC(=O)C2C(c3ccccc3)C2(Cl)Cl)c(C)c1 (configuration not stated) | 0.00461 µM [rising, full curve, poor fit] | 47.9 | 0.231 µM [rising, full curve] |
| Cc1c(NC(=O)c2ccc(C(=O)Nc3c(C)n(C)n(-c4ccccc4)c3=O)cc2)c(=O)n(-c2ccccc2)n1C | – | 16.1 | – |
| O=C(CCC1CCCCC1)NCCN1CCOCC1 | 29.1 µM [rising, single point] | 20.4 | – |
| CSc1ccccc1NC(=O)c1ccc(CN2CCOCC2)cc1 | – | 55.8 | 25.9 µM [rising, single point] |
| COc1ccc(CCNC(=O)C(=O)NCC2OCCN2S(=O)(=O)c2cc(F)ccc2F)cc1OC (configuration not stated) | – | 10.4 | – |
| CCC(C)NC(=O)C1CCC(CNS(=O)(=O)c2ccc3c(c2)N(C(C)=O)CCO3)CC1 (configuration not stated) | – | -3.54 | – |
| CCOc1ccc(N2CC(C(=O)NCc3ccco3)CC2=O)cc1 (configuration not stated) | 0.13 µM [rising, full curve, poor fit] | 12.9 | – |

Next entries follow:

| SMILES | AC50 [1] | cell number change [%] | AC50 [2] |
| --- | --- | --- | --- |
| Cc1ccc(C)c(Nc2nn3c(=O)c4ccc(C(=O)NCc5cccnc5)cc4nc3s2)c1 | – | – | 1.64 µM [falling, partial curve] |
| COc1ccc(CN(C)C(=O)[C@H](Cc2ccccc2)NC(=O)c2ccco2)c(OC)c1 | 6.51 µM [falling, single point] | -10.9 | – |
| N#Cc1cccc(C(=O)N(CCc2ccccc2)Cc2cccs2)c1 | – | -22.2 | – |
| COc1ccc2nc(NC(=O)CCNC(=O)c3ccco3)sc2c1 | 9.2 µM [falling, partial curve, poor fit] | – | – |
| Cc1cc2oc(=O)cc(CN(C)Cc3ccccc3)c2cc1C(C)C | – | 18.7 | 4.11 µM [rising, single point] |
| CC1C(=O)N2CCCc3cc(NC(=O)c4ccccc4Br)cc1c32 (configuration not stated) | – | 58.6 | 11.6 µM [rising, partial curve, poor fit] |
| COc1cc(NC(=S)N2CCCC(CO)C2)cc(OC)c1 (configuration not stated) | – | 4.72 | – |
| COC(=O)CC1(c2ccc(OC)cc2)C(=O)c2ccccc2C1=O | 1.64 µM [falling, partial curve, poor fit] | -21.1 | 4.11 µM [falling, single point] |
| COc1ccc2c(c1)OC[C@H]1[C@H]2N2C(=O)CN(Cc3ccc(F)cc3)C(=O)[C@@]2(C)[C@H]1c1ccccc1 | – | 8.47 | – |
| COc1ccc(NC(=O)CN(C)C(=O)Cc2ccc3c(c2)CCC3)cc1 | 0.517 µM [rising, partial curve] | 37.4 | 9.2 µM [rising, partial curve] |
| COc1ccc(NC(=O)N(Cc2cc3cc(OC)c(OC)cc3[nH]c2=O)CC2CCCO2)cc1 (configuration not stated) | 0.411 µM [rising, full curve, poor fit] | 5.48 | – |
| O=C(Cn1nnc(-c2ccc3c(c2)OCO3)n1)N1CCOCC1 | 8.2 µM [falling, partial curve] | -9.47 | – |
| CC(=O)Nc1ccc(Oc2cncc(Cl)c2)nc1 | – | 4.26 | – |
| O=C(CSc1nnc(NC2CCCCC2)s1)N1CCOCC1 | 0.461 µM [falling, full curve, poor fit] | -17.8 | – |
| CCOc1ccc(-n2cc(-c3ccccc3)c3c(N4CCOCC4)ncnc32)cc1 | – | 7.9 | 1.03 µM [falling, partial curve] |
| Cc1ccccc1S(=O)(=O)Nc1ncnc2ccccc12 | 29.1 µM [rising, single point] | – | – |
| O=C1NC(=S)S/C1=C/c1ccc(OC(=O)c2ccco2)cc1 | 6.51 µM [falling, single point] | 0.427 | – |
| CCCNC(=O)C1CC(=O)N(c2ccc(OCc3ccc(Cl)cc3)cc2)C1 (configuration not stated) | – | -1.76 | – |
| Cc1ccc(N2CCN(/N=C/c3sccc3C)CC2)cc1 | 6.51 µM [rising, single point] | 48.7 | 7.31 µM [rising, partial curve, poor fit] |
| CN1CCN(Cc2nc3cc(NC(=O)COc4ccc([N+](=O)[O-])cc4)ccc3n2C)CC1 | 29.1 µM [rising, single point] | 40.6 | 29.1 µM [rising, single point] |

| SMILES | AC50 [1] | cell number change [%] | AC50 [2] |
| --- | --- | --- | --- |
| COc1ccc([N+](=O)[O-])cc1N(CC(=O)N1CCN(Cc2ccccc2)CC1)S(C)(=O)=O | 18.4 µM [rising, single point] | 21.5 | – |
| Cc1cccc(N2CCN(S(=O)(=O)c3ccc4[nH]c(=O)c(=O)[nH]c4c3)CC2C)c1 (configuration not stated) | 0.13 µM [falling, full curve, poor fit] | -33.1 | 29.1 µM [falling, single point] |
| COc1ccc(CCNc2ccc(N3C(=O)CC(C)C3=O)cc2[N+](=O)[O-])cc1OC (configuration not stated) | 13 µM [falling, partial curve] | -37.2 | 8.2 µM [falling, partial curve] |
| O=C(N/N=C/c1cn(-c2cccs2)nc1-c1ccccc1)c1ccccc1O | 20.6 µM [falling, single point] | -43.8 | 20.6 µM [falling, single point] |
| Nc1c(C(=O)NCc2ccccc2)c2nc3ccccc3nc2n1-c1ccc2c(c1)OCO2 | 0.082 µM [rising, full curve] | 22.4 | 0.116 µM [rising, full curve] |
| CCCCCCCNC(=O)C1(CC2CC(c3cccc(Br)c3)=NO2)CCN(C(=O)C2(C)CC2)CC1 (configuration not stated) | 29.1 µM [rising, single point] | 18.4 | – |
| Cc1ccc(SCc2nc(-c3cccnc3)no2)cc1 | 3.26 µM [rising, full curve] | 0.992 | – |
| CCn1c(CCc2ccccc2)n[nH]c1=S | 0.13 µM [falling, full curve, poor fit] | 11.7 | – |
| CCC(C(=O)N/N=C/c1cccnc1)c1ccccc1 (configuration not stated) | – | -3.24 | – |
| CCOC(=O)[C@H]1[C@H]2COc3ccccc3[C@@H]2N2C(=O)c3cc(Cl)ccc3NC(=O)[C@@]12C | 29.1 µM [falling, single point] | -10.2 | 0.0092 µM [falling, full curve, poor fit] |
| CC(=O)Nc1c(C(N)=O)oc2ccc(Cl)cc12 | – | 20 | – |
| Cc1nc2c(C)cccc2c2c1CCN2c1ccccc1F | 3.66 µM [rising, full curve, poor fit] | 17.8 | – |
| N=C(N)SCP(=O)(c1ccccc1)c1ccccc1 | 4.11 µM [rising, single point] | 11 | 4.11 µM [rising, single point] |
| NC(=O)c1sc2nc(N3CCCCC3)c3c(c2c1N)CCCC3 | – | -30.6 | 29.1 µM [falling, single point] |
| O=C(N1CCOCC1)N1CCN(S(=O)(=O)c2ccc(F)cc2)CC1 | – | 18.5 | – |
| O=C(N/N=C\c1ccc2c(c1)OCO2)c1cncc(Br)c1 | 0.326 µM [rising, single point] | -11.8 | – |
| CCc1ccc(NC(=O)C2CCN(S(=O)(=O)c3ccc4c(c3)N(C(C)=O)CCO4)CC2)cc1 | 11.6 µM [falling, single point] | -5.31 | – |
| COc1ccc([N+](=O)[O-])cc1N(CC(=O)N1CCOCC1)S(C)(=O)=O | – | -37.7 | – |
| Cc1ccc(NC2Sc3ccccc3NC2=O)cc1Cl (configuration not stated) | 18.4 µM [falling, partial curve] | -65.9 | 14.6 µM [falling, partial curve] |
| CC(CN1CCN(Cc2ccccc2)CC1)c1ccccc1 (configuration not stated) | 29.1 µM [rising, single point] | 4.74 | – |

Look-ups from the results shown:
cell number change [%], CC(=O)Nc1c(C(N)=O)oc2ccc(Cl)cc12 is entered as 20
cell number change [%], Cc1ccc(NC2Sc3ccccc3NC2=O)cc1Cl (configuration not stated) is entered as -65.9
